Assay results as given in US10344077.
Results are given in words; binding and its absence hold for the method and conditions named.

Amino acid sequences for entries named in this document (tags omitted). Residues count along the entry.
UniProt P11387, residues 2-765: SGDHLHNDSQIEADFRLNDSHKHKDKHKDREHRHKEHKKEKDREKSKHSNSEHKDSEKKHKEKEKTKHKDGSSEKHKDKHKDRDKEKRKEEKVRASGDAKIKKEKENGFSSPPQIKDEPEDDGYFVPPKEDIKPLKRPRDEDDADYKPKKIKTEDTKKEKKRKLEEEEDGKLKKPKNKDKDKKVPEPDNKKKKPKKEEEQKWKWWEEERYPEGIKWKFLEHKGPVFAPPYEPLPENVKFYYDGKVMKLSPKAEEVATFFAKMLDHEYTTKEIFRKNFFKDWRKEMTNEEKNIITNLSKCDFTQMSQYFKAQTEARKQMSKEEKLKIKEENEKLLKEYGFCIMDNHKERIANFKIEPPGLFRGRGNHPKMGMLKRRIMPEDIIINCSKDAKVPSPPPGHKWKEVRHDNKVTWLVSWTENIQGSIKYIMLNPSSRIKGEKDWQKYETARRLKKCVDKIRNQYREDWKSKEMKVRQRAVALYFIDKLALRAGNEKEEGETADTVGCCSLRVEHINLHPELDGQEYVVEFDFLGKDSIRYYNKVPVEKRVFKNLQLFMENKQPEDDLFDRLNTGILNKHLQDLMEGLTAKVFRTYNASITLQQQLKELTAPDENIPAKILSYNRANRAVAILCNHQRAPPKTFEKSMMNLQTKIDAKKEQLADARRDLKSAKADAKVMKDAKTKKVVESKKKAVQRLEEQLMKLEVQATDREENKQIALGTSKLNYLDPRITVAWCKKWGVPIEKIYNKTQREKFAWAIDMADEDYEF

Experiments:
Assay in all cases: AtheNA
AtheNA = substrate: T1, SSB (UniProt P05455)
T1 sequence (looked up): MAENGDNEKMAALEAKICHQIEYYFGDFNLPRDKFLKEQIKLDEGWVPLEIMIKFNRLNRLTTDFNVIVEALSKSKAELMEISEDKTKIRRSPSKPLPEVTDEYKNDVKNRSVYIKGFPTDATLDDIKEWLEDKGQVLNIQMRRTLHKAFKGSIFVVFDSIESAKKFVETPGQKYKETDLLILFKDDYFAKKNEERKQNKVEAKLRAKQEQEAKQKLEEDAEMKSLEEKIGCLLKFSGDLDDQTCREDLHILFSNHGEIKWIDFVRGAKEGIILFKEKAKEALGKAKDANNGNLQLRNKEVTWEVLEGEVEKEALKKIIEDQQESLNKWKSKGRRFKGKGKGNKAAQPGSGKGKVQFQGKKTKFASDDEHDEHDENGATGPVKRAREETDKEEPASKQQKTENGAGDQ

Jo-1 = molecular target: T2, Jo-1 (UniProt P12081)
T2 sequence (looked up): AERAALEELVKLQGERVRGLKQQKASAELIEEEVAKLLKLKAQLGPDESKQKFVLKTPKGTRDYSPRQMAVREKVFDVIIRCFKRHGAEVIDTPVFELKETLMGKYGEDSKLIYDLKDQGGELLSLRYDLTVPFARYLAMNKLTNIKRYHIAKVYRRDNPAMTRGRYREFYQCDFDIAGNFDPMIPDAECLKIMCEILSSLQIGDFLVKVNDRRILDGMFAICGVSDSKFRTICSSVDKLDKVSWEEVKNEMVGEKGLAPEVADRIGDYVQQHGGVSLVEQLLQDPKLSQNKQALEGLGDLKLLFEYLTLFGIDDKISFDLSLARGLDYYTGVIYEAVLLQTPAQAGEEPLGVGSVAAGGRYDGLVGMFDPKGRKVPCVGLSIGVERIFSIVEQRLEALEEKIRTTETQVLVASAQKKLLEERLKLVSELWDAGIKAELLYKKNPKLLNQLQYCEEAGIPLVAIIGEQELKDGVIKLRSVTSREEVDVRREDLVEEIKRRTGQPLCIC

Centromere B = molecular target: T3, Centromere B (UniProt P07199)
T3 sequence (looked up): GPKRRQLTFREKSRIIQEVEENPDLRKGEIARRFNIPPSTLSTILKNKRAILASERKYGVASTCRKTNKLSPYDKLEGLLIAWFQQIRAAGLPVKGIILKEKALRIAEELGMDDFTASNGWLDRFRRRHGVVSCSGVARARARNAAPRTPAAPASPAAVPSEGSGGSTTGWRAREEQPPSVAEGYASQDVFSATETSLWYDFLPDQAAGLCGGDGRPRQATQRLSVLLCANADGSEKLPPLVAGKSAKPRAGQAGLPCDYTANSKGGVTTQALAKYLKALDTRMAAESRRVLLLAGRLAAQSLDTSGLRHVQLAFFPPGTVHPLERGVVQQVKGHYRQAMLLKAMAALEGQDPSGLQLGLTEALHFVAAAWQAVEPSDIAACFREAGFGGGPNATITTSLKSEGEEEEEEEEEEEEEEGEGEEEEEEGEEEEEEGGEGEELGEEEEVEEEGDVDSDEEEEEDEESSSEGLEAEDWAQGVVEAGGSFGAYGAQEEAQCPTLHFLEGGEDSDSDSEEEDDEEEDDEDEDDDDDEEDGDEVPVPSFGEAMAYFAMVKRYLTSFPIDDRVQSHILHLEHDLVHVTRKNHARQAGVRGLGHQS

Scl-70 = Scl-70 (UniProt P11387)

B1: DH542 (antibody, V domains shown)
VH: QVQLVQSGAQMKNPGASVKVSCAPSGYTFTDFYIHWLRQAPGQGLQWMGWMNPQTGRTNTARNFQGRVTMTRDTSIGTAYMELRSLTSDDTAIYYCTTGGWISLYYDSSYYPNFDHWGQGTLLTVSS
VL: TSLLTQPASVSGSPGQSITISCTGTKYDVGSHDLVSWYQQYPGKVPKYMIYEVNKRPSGVSNRFSGSKSGNTASLTISGLRAEDEADYYCCSFGGSATVVCGGGTKVTVL
B1 was tested, and the binding (AtheNA) was “no binding (tested: Readings <100 are considered negative)”, the binding (Jo-1) was “no binding (tested: Readings <100 are considered negative)” and the binding (Centromere B) was “no binding (tested: Readings <100 are considered negative)”. The binding (Scl-70) was “no binding (tested: Readings <100 are considered negative)”.

B2: CH557 (antibody, V domains shown)
VH: QVRLAQYGGGVKRLGATMTLSCVASGYTFNDYYIHWVRQAPGQGFELLGYIDPANGRPDYAGALRERLSFYRDKSMETLYMDLRSLRYDDTAMYYCVRNVGTAGSLLHYDHWGSGSPVIVSS
VL: EIVLTQSPATLSASPGERVTLTCRASRSVRNNVAWYQHKGGQSPRLLIYDASTRAAGVPARFSGSASGTEFTLAISNLESEDFTVYFCLQYNNWWTFGQGTRVDIK
In the case of B2, the binding (Centromere B) is reported as “no binding (tested: 6.25 ug/ml to 50 ug/ml)”.
